Test results reported in paper PMC12170880.
Results are given in words; binding and its absence hold for the method and conditions named. Some entries that bind do so weakly or less than the wild type. Sequences can lack the tags named with a protein.

Sequences of proteins named here, by UniProt entry; tags and fusion partners are left off. Residues count along the entry.
UniProt Q9XIE1, residues 1-191: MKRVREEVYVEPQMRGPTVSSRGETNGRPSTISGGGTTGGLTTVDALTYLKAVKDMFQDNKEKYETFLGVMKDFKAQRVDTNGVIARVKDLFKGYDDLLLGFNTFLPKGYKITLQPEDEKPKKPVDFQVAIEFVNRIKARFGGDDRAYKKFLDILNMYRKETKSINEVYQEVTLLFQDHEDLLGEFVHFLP

Molecular target: T1, GST-HDA19 (Arabidopsis thaliana) (UniProt O22446)
T1 sequence: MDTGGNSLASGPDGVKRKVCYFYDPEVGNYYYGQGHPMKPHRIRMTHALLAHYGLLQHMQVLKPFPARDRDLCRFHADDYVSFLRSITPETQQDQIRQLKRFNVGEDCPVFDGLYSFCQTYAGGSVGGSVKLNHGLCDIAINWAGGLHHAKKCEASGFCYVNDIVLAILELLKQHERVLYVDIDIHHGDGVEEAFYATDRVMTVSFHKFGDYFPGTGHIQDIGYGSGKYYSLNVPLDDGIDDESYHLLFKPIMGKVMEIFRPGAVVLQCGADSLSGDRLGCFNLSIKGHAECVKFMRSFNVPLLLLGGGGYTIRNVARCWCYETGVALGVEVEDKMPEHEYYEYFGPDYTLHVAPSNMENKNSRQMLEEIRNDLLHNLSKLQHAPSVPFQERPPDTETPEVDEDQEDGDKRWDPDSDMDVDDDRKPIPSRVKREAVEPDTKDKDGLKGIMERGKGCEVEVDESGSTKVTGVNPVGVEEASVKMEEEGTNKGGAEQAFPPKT
Assay: pull-down; pairs of GST-, MBP- or His-tagged proteins incubated with GST or MBP beads 2 h at 4 °C, five washes with lysis buffer, elution, western blot with anti-GST, anti-MBP or anti-His; both purified

binding: binds
Substance: His-SNL5-3 (1–191 aa) (from UniProt Q9XIE1 1-191) (domain or fragment)
